Legend:
[1] = Example 1: fresh photographic properties of the thermally processed image recording material containing the compound (660 nm laser exposure, heat development, densitometer); settings: for Fresh photographic property Dmax / Fresh photographic property Contrast / Fresh photographic property Sensitivity: 1.6×10^-1 mol/mol-Ag; for Fresh photographic property Contrast: gradient between densities 0.5 and 1.5 above Dmin; for Fresh photographic property Sensitivity: relative value, exposure giving density Dmin + 1.0; for Fresh photographic property Dmin: added amount 1.6×10^-1 mol/mol-Ag, 118°C for 5 seconds then 122°C for 16 seconds, visible density
[2] = Example 2: fresh photographic properties of the ultrahigh contrast thermally processed image recording material containing the compound (783 nm laser exposure, heat development, densitometer); settings: for Fresh photographic property Dmax / Fresh photographic property Contrast / Fresh photographic property Sensitivity: 8×10^-2 mol/mol-Ag; for Fresh photographic property Contrast: gradient between densities 0.3 and 1.5 above Dmin; for Fresh photographic property Sensitivity: relative value, Experiment No. 1 = 100, exposure giving density Dmin + 1.0; for Fresh photographic property Dmin: added amount 8×10^-2 mol/mol-Ag, heat development 120°C for 20 seconds, visible density
[3] = Table 2, first experiment of the table = 100
[4] = Table 1, Experiment No. 1 of the table = 100

SMILES: CCCCCCCCCCCCCCCCNC(=O)c1cccc(S(=O)(=O)C(Br)(Br)Br)c1 [Comparative Compound (1)]
- Fresh photographic property Dmax ([1]; Table 2): 3.0
- Fresh photographic property Contrast ([1]; Table 2): 2.7
- Fresh photographic property Sensitivity [1, 3]: 99
- Fresh photographic property Dmin ([1]; Table 2): 0.15

SMILES: CCCCCCCCN(CCCCCCCC)S(=O)(=O)c1ccc(S(=O)(=O)C(Br)(Br)Br)cc1 [Comparative Compound (4)]
- Fresh photographic property Dmax ([1]; Table 2): 2.9
- Fresh photographic property Contrast ([1]; Table 2): 2.7
- Fresh photographic property Sensitivity [1, 3]: 98
- Fresh photographic property Dmin ([1]; Table 2): 0.15

SMILES: CCCCCCOCCN(CC)C(=O)c1cccc(S(=O)(=O)C(Br)(Br)Br)c1 [Comparative Compound 1]
- Fresh photographic property Dmax ([2]; Table 3): 3.2
- Fresh photographic property Contrast ([2]; Table 3): 9.5
- Fresh photographic property Sensitivity ([2]; Table 3): 82
- Fresh photographic property Dmin ([2]; Table 3): 0.06
- Fresh photographic property Dmax ([1]; Table 1): 2.5
- Fresh photographic property Contrast ([1]; Table 1): 2.3
- Fresh photographic property Sensitivity [1, 4]: 75
- Fresh photographic property Dmin ([1]; Table 1): 0.15

SMILES: CCCC(C)NC(=O)c1cccc(S(=O)(=O)C(Br)(Br)Br)c1 (stereo not drawn) [P'-20]
- Fresh photographic property Dmax ([2]; Table 4): 4.0
- Fresh photographic property Contrast ([2]; Table 4): 20.3
- Fresh photographic property Sensitivity ([2]; Table 4): 99
- Fresh photographic property Dmin ([2]; Table 4): 0.06
- Fresh photographic property Dmax ([1]; Table 2): 3.0
- Fresh photographic property Contrast ([1]; Table 2): 2.7
- Fresh photographic property Sensitivity [1, 3]: 101
- Fresh photographic property Dmin ([1]; Table 2): 0.15

SMILES: CCCCNS(=O)(=O)c1cccc(S(=O)(=O)C(Br)(Br)Br)c1 [P-18]
- Fresh photographic property Dmax ([1]; Table 1): 3.0
- Fresh photographic property Contrast ([1]; Table 1): 2.7
- Fresh photographic property Sensitivity [1, 4]: 100
- Fresh photographic property Dmin ([1]; Table 1): 0.15

SMILES: O=C(c1cccc(S(=O)(=O)C(Br)(Br)Br)c1)N1CCCC1 [Comparative Compound (3)]
- Fresh photographic property Dmax ([2]; Table 4): 4.1
- Fresh photographic property Contrast ([2]; Table 4): 19.1
- Fresh photographic property Sensitivity ([2]; Table 4): 99
- Fresh photographic property Dmin ([2]; Table 4): 0.06
- Fresh photographic property Dmax ([1]; Table 2): 3.1
- Fresh photographic property Contrast ([1]; Table 2): 2.7
- Fresh photographic property Sensitivity [1, 3]: 101
- Fresh photographic property Dmin ([1]; Table 2): 0.15

SMILES: CCNC(=O)c1ccccc1S(=O)(=O)C(Br)(Br)Br [Comparative Compound 3]
- Fresh photographic property Dmax ([2]; Table 3): 4.1
- Fresh photographic property Contrast ([2]; Table 3): 19.5
- Fresh photographic property Sensitivity ([2]; Table 3): 108
- Fresh photographic property Dmin ([2]; Table 3): 0.09
- Fresh photographic property Dmax ([1]; Table 1): 3.0
- Fresh photographic property Contrast ([1]; Table 1): 2.8
- Fresh photographic property Sensitivity [1, 4]: 108
- Fresh photographic property Dmin ([1]; Table 1): 0.16

SMILES: CCCCOCCCNC(=O)c1cccc(S(=O)(=O)C(Br)(Br)Br)c1 [P'-15]
- Fresh photographic property Dmax ([2]; Table 4): 4.0
- Fresh photographic property Contrast ([2]; Table 4): 20.3
- Fresh photographic property Sensitivity ([2]; Table 4): 100
- Fresh photographic property Dmin ([2]; Table 4): 0.06
- Fresh photographic property Dmax ([1]; Table 2): 3.0
- Fresh photographic property Contrast ([1]; Table 2): 2.7
- Fresh photographic property Sensitivity [1, 3]: 100
- Fresh photographic property Dmin ([1]; Table 2): 0.15

SMILES: COCCCNC(=O)c1cccc(S(=O)(=O)C(Br)(Br)Br)c1 [P-11]
- Fresh photographic property Dmax ([1]; Table 1): 3.0
- Fresh photographic property Contrast ([1]; Table 1): 2.7
- Fresh photographic property Sensitivity [1, 4]: 101
- Fresh photographic property Dmin ([1]; Table 1): 0.15

SMILES: CCC(CC)NC(=O)c1cccc(S(=O)(=O)C(Br)(Br)Br)c1 [P'-18]
- Fresh photographic property Dmax ([1]; Table 2): 3.0
- Fresh photographic property Contrast ([1]; Table 2): 2.7
- Fresh photographic property Sensitivity [1, 3]: 100
- Fresh photographic property Dmin ([1]; Table 2): 0.15

SMILES: CCOCCNC(=O)c1cccc(S(=O)(=O)C(Br)(Br)Br)c1 [P'-1]
- Fresh photographic property Dmax ([2]; Table 4): 4.0
- Fresh photographic property Contrast ([2]; Table 4): 20.3
- Fresh photographic property Sensitivity ([2]; Table 4): 100
- Fresh photographic property Dmin ([2]; Table 4): 0.06
- Fresh photographic property Dmax ([1]; Table 2): 3.0
- Fresh photographic property Contrast ([1]; Table 2): 2.7
- Fresh photographic property Sensitivity [1, 3]: 100
- Fresh photographic property Dmin ([1]; Table 2): 0.15

SMILES: CCCCCCCCCCCCN(CCCCCCCCCCCC)C(=O)c1cc(S(C)(=O)=O)ccc1S(=O)(=O)C(Br)(Br)Br [Comparative Compound (5)]
- Fresh photographic property Dmax ([1]; Table 2): 3.0
- Fresh photographic property Contrast ([1]; Table 2): 2.7
- Fresh photographic property Sensitivity [1, 3]: 99
- Fresh photographic property Dmin ([1]; Table 2): 0.15

From EP1072948B1, “Thermally processed image recording material” (FUJIFILM Corporation, priority 1999, dated 2001)
